Laboratory results: PubChem BioAssay AID1259308 (NCATS, 2017)
Shown is a random part of about 59,000 reagents. In the full data, about 1,510 (2.6%) are marked active. 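Calls use total luciferase alone and ignore viability, so some active siRNAs may act by altering cell number.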 Reagents against one gene are numbered here.

Purpose: 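Genes whose loss raises luciferase production in HEK293 cells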 (primary screen)
Cell system: human HEK293 embryonic kidney cells stably expressing firefly luciferase (HEK-CMV-Luc2-Hygro)
Reagents: single siRNA against human genes, 0.8 pmol siRNA per well
Time to read-out: 72 h
Measured: 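Luciferase light (ONE-Glo) measured on one replicate plate set and viability (CellTiter-Glo) on the other, scaled to a negative control siRNA, with robust z-scores and luciferase per cell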
Direction: total luciferase, z-score and total luciferase, % of control: higher = more reporter protein produced; luciferase per cell, z-score: higher = more reporter output per viable cell; viable cells, % of control: higher = more viable cells
Hit rule: 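An siRNA counts as active if its total luciferase robust z-score exceeds 3; genes with two or more such siRNAs out of three were retested with fresh siRNAs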
Calls: active = raised luciferase; inactive = no rise

total luciferase, z-score	total luciferase, % of control	luciferase per cell, z-score	viable cells, % of control	Call	Target gene	siRNA no.
0.00141	81.9	-0.575	107	inactive	SLC30A4	1
-0.144	79	-0.378	97.5	inactive	SLC30A4	2
-1.29	56.3	-0.478	71.3	inactive	SLC30A4	3
-1.44	53.3	-0.963	76.7	inactive	SLC26A5	1
-0.245	77	-0.0462	87.1	inactive	SLC26A5	2
-1.12	59.6	0.182	63.5	inactive	SLC26A5	3
1.76	117	1.29	93	inactive	ZNF592 (zinc finger protein 592)	1
-0.354	74.9	-0.635	98.9	inactive	ZNF592 (zinc finger protein 592)	2
1	102	0.368	103	inactive	ZNF592 (zinc finger protein 592)	3
0.742	96.7	0.393	97.4	inactive	PYCARD (PYD and CARD domain containing)	1
-0.0548	80.8	-0.0522	91.5	inactive	PYCARD (PYD and CARD domain containing)	2
0.144	84.8	-0.407	105	inactive	PYCARD (PYD and CARD domain containing)	3
0.361	89.1	-0.216	105	inactive	RAMP1 (receptor activity modifying protein 1)	1
-0.649	69	-0.749	93.9	inactive	RAMP1 (receptor activity modifying protein 1)	2
-0.124	79.4	0.0136	88.4	inactive	RAMP1 (receptor activity modifying protein 1)	3
-0.182	78.3	-0.627	103	inactive	ITK (IL2 inducible T cell kinase)	1
-0.791	66.2	-0.947	94.9	inactive	ITK (IL2 inducible T cell kinase)	2
-0.193	78.1	-0.536	100	inactive	ITK (IL2 inducible T cell kinase)	3
0.678	95.4	0.621	90.5	inactive	SHCBP1 (SHC binding and spindle associated 1)	1
-0.137	79.2	-0.335	96.6	inactive	SHCBP1 (SHC binding and spindle associated 1)	2
-1.39	54.2	-1.16	82.3	inactive	SHCBP1 (SHC binding and spindle associated 1)	3
-2.58	30.6	-2.54	66.8	inactive	CALML4 (calmodulin like 4)	1
-0.565	70.6	0.212	74.7	inactive	CALML4 (calmodulin like 4)	2
4.63	174	3.02	87.8	active	CALML4 (calmodulin like 4)	3

Records above with an active call, once more:
total luciferase, z-score	total luciferase, % of control	luciferase per cell, z-score	viable cells, % of control	Call	Target gene	siRNA no.
4.63	174	3.02	87.8	active	CALML4 (calmodulin like 4)	3
